Values from PubChem BioAssay AID1259405 (NCATS, 2018).
Here is one part, drawn at random, of about 50,000 reagents. About 4,000 of them (8%) count as active. 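Mouse siRNA library applied to hamster cells; one well for each siRNA.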 Unmarked entries are inactive. Reagents against one gene are numbered here.

- Test: 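Silenced genes that increase secreted GFP made by CHO cells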 (primary screen)
- Cells: Chinese hamster CHO-K1 ovary cells with stable secreted eGFP expression
- Knock-down reagent: single siRNA against mouse genes, 0.8 pmol siRNA per well (2 µl of 400 nM stock)
- Time to read-out: 3 days
- Detection: 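Percent of the per-plate non-targeting control median for intracellular GFP per well by laser scanning cytometry and for cell viability by ATP luminescence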
- Reading the numbers: GFP, % of control: higher = more GFP per well, higher productivity; viability (ATP), % of control: higher = more viable cells (more ATP)
- Rule for the call: 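a knock-down is called active if GFP reaches 120% or more of non-targeting control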

gene knocked down	siRNA no.	GFP, % of control	viability (ATP), % of control
Il23a (interleukin 23, alpha subunit p19)	1	82.9	56.8
Il23a (interleukin 23, alpha subunit p19)	2	40.4	40.3
Il23a (interleukin 23, alpha subunit p19)	3	61.5	66.6
1810024B03Rik (RIKEN cDNA 1810024B03 gene)	1	91.8	59.3
1810024B03Rik (RIKEN cDNA 1810024B03 gene)	2	75.6	88.7
1810024B03Rik (RIKEN cDNA 1810024B03 gene)	3	83.1	89.1
Lin7c (lin-7 homolog C, crumbs cell polarity complex component)	1	59	70.6
Lin7c (lin-7 homolog C, crumbs cell polarity complex component)	2	63.6	75.9
Cxcr4 (C-X-C motif chemokine receptor 4)	1	96.9	40.9
Cxcr4 (C-X-C motif chemokine receptor 4)	2	73.9	67.2
Cxcr4 (C-X-C motif chemokine receptor 4)	3	74.4	117
Fbxw19 (F-box and WD-40 domain protein 19)	1	55.5	87.3
Fbxw19 (F-box and WD-40 domain protein 19)	2	69.7	55
Fbxw19 (F-box and WD-40 domain protein 19)	3	50	67.3
Eqtn (equatorin, sperm acrosome associated)	1	65.2	84.7
Eqtn (equatorin, sperm acrosome associated)	2	115	65.8
Eqtn (equatorin, sperm acrosome associated)	3	119	123
Kat14 (lysine acetyltransferase 14)	1	80.7	93
Kat14 (lysine acetyltransferase 14)	2	114	87.5
Gp2 (glycoprotein 2 zymogen granule membrane)	1	98.6	59.2
Gp2 (glycoprotein 2 zymogen granule membrane)	2	62.6	58.3
Gp2 (glycoprotein 2 zymogen granule membrane)	3	135 (active)	97
Or5p79 (olfactory receptor family 5 subfamily P member 79)	1	67.7	57.5
Or5p79 (olfactory receptor family 5 subfamily P member 79)	2	91.9	85
Or5p79 (olfactory receptor family 5 subfamily P member 79)	3	35.4	60.3
Dctn6 (dynactin 6)	1	86.5	67.6
Dctn6 (dynactin 6)	2	56.2	82.1
Zfp316 (zinc finger protein 316)	1	43.3	41.4
Zfp316 (zinc finger protein 316)	2	71.9	77.6
Zfp316 (zinc finger protein 316)	3	65.5	74.7
Fnbp1 (formin binding protein 1)	1	111	97.8
Fnbp1 (formin binding protein 1)	2	138 (active)	91.2
1700102P08Rik (RIKEN cDNA 1700102P08 gene)	1	89.6	69.5
1700102P08Rik (RIKEN cDNA 1700102P08 gene)	2	110	101
1700102P08Rik (RIKEN cDNA 1700102P08 gene)	3	68.2	53.8
Ccdc51 (coiled-coil domain containing 51)	1	28.7	33
Ccdc51 (coiled-coil domain containing 51)	2	139 (active)	107
Ccdc51 (coiled-coil domain containing 51)	3	63.4	81.2

Part of the list above, set out differently:
Gp2 (glycoprotein 2 zymogen granule membrane) #1 — GFP, % of control = 98.6; viability (ATP), % of control = 59.2
Gp2 (glycoprotein 2 zymogen granule membrane) #2 — GFP, % of control = 62.6; viability (ATP), % of control = 58.3
Gp2 (glycoprotein 2 zymogen granule membrane) #3 — GFP, % of control = 135 (active); viability (ATP), % of control = 97
Or5p79 (olfactory receptor family 5 subfamily P member 79) #1 — GFP, % of control = 67.7; viability (ATP), % of control = 57.5
Or5p79 (olfactory receptor family 5 subfamily P member 79) #2 — GFP, % of control = 91.9; viability (ATP), % of control = 85
Or5p79 (olfactory receptor family 5 subfamily P member 79) #3 — GFP, % of control = 35.4; viability (ATP), % of control = 60.3

Further results follow:
gene knocked down	siRNA no.	GFP, % of control	viability (ATP), % of control
Slc44a4	1	100	115
Slc44a4	2	60.6	56.4
Slc44a4	3	96.6	111
Clec2e (C-type lectin domain family 2, member e)	1	48.7	44.4
Clec2e (C-type lectin domain family 2, member e)	2	70.3	86.6
Clec2e (C-type lectin domain family 2, member e)	3	79.4	101
Or55b10 (olfactory receptor family 55 subfamily B member 10)	1	84.5	79.3
Or55b10 (olfactory receptor family 55 subfamily B member 10)	2	73	105
Or55b10 (olfactory receptor family 55 subfamily B member 10)	3	35.8	35.2
Bpgm (2,3-bisphosphoglycerate mutase)	1	79.3	112
Bpgm (2,3-bisphosphoglycerate mutase)	2	54.8	69.4
Bpgm (2,3-bisphosphoglycerate mutase)	3	88.1	86
Tnp1 (transition protein 1)	1	91.9	114
Tnp1 (transition protein 1)	2	87	122
Tnp1 (transition protein 1)	3	109	125
Traf4 (TNF receptor associated factor 4)	1	55.7	74.1
Traf4 (TNF receptor associated factor 4)	2	69.2	50.7
Traf4 (TNF receptor associated factor 4)	3	66.2	71.8
Krtap4-13 (keratin associated protein 4-13)	1	134 (active)	66.4
Krtap4-13 (keratin associated protein 4-13)	2	72.8	80.8
Krtap4-13 (keratin associated protein 4-13)	3	87	44.4
Mmp14 (matrix metallopeptidase 14 (membrane-inserted))	1	63.4	65
Mmp14 (matrix metallopeptidase 14 (membrane-inserted))	2	109	87.9
Serpinb1b (serine (or cysteine) peptidase inhibitor, clade B, member 1b)	1	80.2	67
Serpinb1b (serine (or cysteine) peptidase inhibitor, clade B, member 1b)	2	66.4	73.6
Serpinb1b (serine (or cysteine) peptidase inhibitor, clade B, member 1b)	3	103	111
Fmr1nb (Fmr1 neighbor)	1	80.1	80.2
Fmr1nb (Fmr1 neighbor)	2	73.6	69.7
Fmr1nb (Fmr1 neighbor)	3	90.5	82.9
Ugt1a10 (UDP glycosyltransferase 1 family, polypeptide A10)	1	35.6	32.9
Ugt1a10 (UDP glycosyltransferase 1 family, polypeptide A10)	2	78.6	90.3
Ugt1a10 (UDP glycosyltransferase 1 family, polypeptide A10)	3	84.4	53.2
Defb6 (defensin beta 6)	1	87.6	79.3
Defb6 (defensin beta 6)	2	52.8	43.6
Defb6 (defensin beta 6)	3	48.4	34.5
Defb12 (defensin beta 12)	1	72.8	83.7
Defb12 (defensin beta 12)	2	86.9	52.3
Defb12 (defensin beta 12)	3	88.1	72.9
Tph1 (tryptophan hydroxylase 1)	1	72	74.3
Tph1 (tryptophan hydroxylase 1)	2	62	39.1
Tph1 (tryptophan hydroxylase 1)	3	60.5	65.5
Bpifb6 (BPI fold containing family B, member 6)	1	90.3	97.4
Bpifb6 (BPI fold containing family B, member 6)	2	72.6	89.6
Svop (SV2 related protein)	1	57.4	53.7
Svop (SV2 related protein)	2	79.5	86.7
Svop (SV2 related protein)	3	77.6	65.1
